# Measured data: PubChem BioAssay AID1259308 (NCATS, 2017)
# Screen: 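Knock-downs that increase output of a recombinant reporter protein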 (primary screen)
# System: human HEK293 embryonic kidney cells stably expressing firefly luciferase (HEK-CMV-Luc2-Hygro)
# Knock-down reagent: single siRNA against human genes, 0.8 pmol siRNA per well
# Time to read-out: 72 h
# Measured: 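Reporter luminescence and viable-cell signal on separate replicate plates, given as percent of non-targeting control and median/MAD z-scores, plus per-cell luciferase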
# Direction: total luciferase, z-score and total luciferase, % of control: higher = more reporter protein produced; luciferase per cell, z-score: higher = more reporter output per viable cell
# Call rule: 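An siRNA counts as active if its total luciferase robust z-score exceeds 3; genes with two or more such siRNAs out of three were retested with fresh siRNAs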
# Meaning of the calls: active = raised luciferase; inactive = no rise
# The whole screen tested about 59,000 reagents; this is an unselected part. Over the whole deposit, about 1,510 (2.6%) are marked active. 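Calls use total luciferase alone and ignore viability, so some active siRNAs may act by altering cell number.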 Unmarked entries are inactive. Not all columns of the deposit are shown.
target gene,PubChem SID,"total luciferase, z-score","total luciferase, % of control","luciferase per cell, z-score"
UBE2Q2,SID160754393,-0.861,64.8,-0.885
UBE2Q2,SID160754394,1.06,103,1.43
UBE2Q2,SID160754395,-0.915,63.7,-0.398
SCRN1,SID160723130,-1.27,56.6,0.0978
SCRN1,SID160723131,4.19 (active),165,3.01
SCRN1,SID160723132,0.914,100,0.262
TENM3,SID160744157,0.0866,83.6,-0.438
TENM3,SID160744158,-1.22,57.6,-1.83
TENM3,SID160744159,-0.604,69.9,-0.883
HERC1,SID160721148,-0.11,79.7,0.291
HERC1,SID160721149,-0.342,75.1,-0.957
HERC1,SID160721150,-0.767,66.6,-1.15
TMEM42,SID160757087,-0.231,77.3,-0.971
TMEM42,SID160757088,0.282,87.5,-0.22
TMEM42,SID160757090,0.578,93.4,-0.27
SLC9A8,SID160735989,-0.204,77.8,-0.432
SLC9A8,SID160735990,-0.298,76,-0.0576
SLC9A8,SID160735991,0.223,86.3,0.0616
CTNNBL1,SID160744983,-1.08,60.4,-0.751
CTNNBL1,SID160744984,1.97,121,1.68
CTNNBL1,SID160744987,2.65,135,1.79
MAPKAP1,SID160748659,-0.99,62.2,-1.22
MAPKAP1,SID160748660,0.0441,82.8,-0.397
MAPKAP1,SID160748661,-0.579,70.4,0.418
PLSCR2,SID160745528,-0.0912,80.1,-0.249
PLSCR2,SID160745529,-0.0742,80.4,0.581
PLSCR2,SID160745530,-0.0136,81.6,-0.145
SNX5,SID160738429,-0.439,73.1,-0.654
SNX5,SID160738430,0.0431,82.7,0.838
SNX5,SID160738431,0.338,88.6,0.634
LAMC2,SID160776517,0.572,93.3,0.741
LAMC2,SID160776518,-0.0849,80.2,-0.679
LAMC2,SID160776519,1.41,110,1.74
VPS72,SID160717832,-0.448,73,-0.78
VPS72,SID160717833,-1.43,53.5,-0.87
VPS72,SID160717834,0.315,88.1,0.44
KBTBD2,SID160737318,1.32,108,1.04
KBTBD2,SID160737319,-0.146,79,0.0596
KBTBD2,SID160737321,-0.103,79.8,-0.579
NFATC1,SID160777984,-1.36,54.8,0.308
NFATC1,SID160777985,-0.468,72.6,-0.308
NFATC1,SID160777986,1.48,111,2.1
NUP62CL,SID160742265,0.675,95.3,0.566
NUP62CL,SID160742266,-1,62,-1.55
NUP62CL,SID160742267,-0.352,74.9,-0.205
CCL25,SID160716489,0.0352,82.6,-0.996
CCL25,SID160716490,0.604,93.9,-0.291
CCL25,SID160716491,-0.63,69.3,-1.07
CRACR2A,SID160752686,0.354,88.9,-0.285
CRACR2A,SID160752687,-0.103,79.8,-0.0536
CRACR2A,SID160752688,0.289,87.6,0.314
SLC19A1,SID160716974,-0.612,69.7,-0.512
SLC19A1,SID160716975,-0.643,69.1,-0.669
SLC19A1,SID160716976,0.819,98.2,0.573
LIPT1,SID160741067,-0.661,68.7,-1.17
LIPT1,SID160741068,0.582,93.5,0.898
LIPT1,SID160741069,0.0758,83.4,-0.0695
EEF2KMT,SID160732641,0.641,94.6,0.161
EEF2KMT,SID160760635,5.54 (active),192,3.77
EEF2KMT,SID160760636,-0.38,74.3,-0.916
TUBB1,SID160750658,-0.64,69.2,-0.401
TUBB1,SID160750659,-1.48,52.4,-0.958
TUBB1,SID160750661,-1.69,48.2,-1.03
HPSE,SID160729345,-0.832,65.3,-1.03
HPSE,SID160729346,0.56,93,0.479
HPSE,SID160729347,-0.547,71,-0.42
SARM1,SID160735447,0.6,93.8,0.125
SARM1,SID160735448,-0.361,74.7,-0.339
SARM1,SID160735449,0.776,97.3,1.2
SKOR1,SID160731185,-0.357,74.8,-0.714
SKOR1,SID160766539,-0.78,66.4,-1.41
SKOR1,SID160766541,-2,42.1,-0.802
CROT,SID160742027,-1.31,55.8,-2.31
CROT,SID160742028,0.157,85,-0.497
CROT,SID160742029,-0.263,76.7,-0.303

5 entries from above, set out differently:
target gene | PubChem SID | total luciferase, z-score | total luciferase, % of control | luciferase per cell, z-score
CRACR2A | SID160752688 | 0.289 | 87.6 | 0.314
SLC19A1 | SID160716974 | -0.612 | 69.7 | -0.512
SLC19A1 | SID160716975 | -0.643 | 69.1 | -0.669
SLC19A1 | SID160716976 | 0.819 | 98.2 | 0.573
LIPT1 | SID160741067 | -0.661 | 68.7 | -1.17
